# Experimental data reported in article PMC5342796.
# Sequences of proteins named here, by UniProt entry; tags and fusion partners are left off.
# UniProt Q9H6I2: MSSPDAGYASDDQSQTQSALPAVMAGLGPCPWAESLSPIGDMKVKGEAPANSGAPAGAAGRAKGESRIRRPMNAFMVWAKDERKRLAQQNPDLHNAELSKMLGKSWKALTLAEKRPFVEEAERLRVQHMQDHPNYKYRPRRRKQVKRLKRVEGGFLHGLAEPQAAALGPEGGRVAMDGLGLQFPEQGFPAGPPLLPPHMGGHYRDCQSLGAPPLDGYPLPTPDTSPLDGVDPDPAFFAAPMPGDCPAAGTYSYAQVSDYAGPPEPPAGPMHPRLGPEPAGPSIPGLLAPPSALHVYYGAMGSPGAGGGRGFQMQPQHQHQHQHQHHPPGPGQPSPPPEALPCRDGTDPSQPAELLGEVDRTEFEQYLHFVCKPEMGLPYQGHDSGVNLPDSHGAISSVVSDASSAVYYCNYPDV
# UniProt Q96JK9: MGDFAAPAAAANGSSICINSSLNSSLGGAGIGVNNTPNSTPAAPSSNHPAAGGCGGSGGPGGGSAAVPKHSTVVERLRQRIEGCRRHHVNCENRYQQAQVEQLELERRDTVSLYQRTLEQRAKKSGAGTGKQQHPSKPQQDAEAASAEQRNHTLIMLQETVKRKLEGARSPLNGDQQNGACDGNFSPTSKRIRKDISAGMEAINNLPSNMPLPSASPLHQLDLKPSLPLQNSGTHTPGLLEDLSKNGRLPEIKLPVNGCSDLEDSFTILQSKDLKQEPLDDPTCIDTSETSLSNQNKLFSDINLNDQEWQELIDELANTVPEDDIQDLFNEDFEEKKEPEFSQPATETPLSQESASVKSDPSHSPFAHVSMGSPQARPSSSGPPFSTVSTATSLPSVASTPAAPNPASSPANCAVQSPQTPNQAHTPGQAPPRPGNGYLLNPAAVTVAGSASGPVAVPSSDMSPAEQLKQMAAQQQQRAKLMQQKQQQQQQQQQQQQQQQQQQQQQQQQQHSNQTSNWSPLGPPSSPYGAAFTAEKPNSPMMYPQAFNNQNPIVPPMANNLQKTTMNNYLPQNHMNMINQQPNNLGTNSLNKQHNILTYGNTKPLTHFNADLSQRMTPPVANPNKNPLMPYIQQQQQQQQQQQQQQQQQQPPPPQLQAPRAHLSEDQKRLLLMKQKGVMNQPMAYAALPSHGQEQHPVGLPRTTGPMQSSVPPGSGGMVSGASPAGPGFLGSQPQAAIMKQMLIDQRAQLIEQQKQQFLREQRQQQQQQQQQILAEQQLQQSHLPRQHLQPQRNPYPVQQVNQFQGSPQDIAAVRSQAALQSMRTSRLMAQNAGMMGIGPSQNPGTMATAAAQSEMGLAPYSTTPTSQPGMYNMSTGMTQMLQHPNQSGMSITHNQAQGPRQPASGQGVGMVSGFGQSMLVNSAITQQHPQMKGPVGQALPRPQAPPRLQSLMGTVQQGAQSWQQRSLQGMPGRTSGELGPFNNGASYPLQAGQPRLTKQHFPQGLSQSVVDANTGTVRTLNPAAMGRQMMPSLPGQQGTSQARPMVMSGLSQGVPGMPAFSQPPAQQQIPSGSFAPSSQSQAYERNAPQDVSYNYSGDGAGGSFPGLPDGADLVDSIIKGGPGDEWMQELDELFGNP
# These are yes or no findings as the source states them, for the method shown. Binding seen in cells or lysates may run through a third protein. Some entries that bind do so weakly or less than the wild type.
# Assays:
# SOX17 in HEC-1B cells = SOX17 in HEC-1B cells (UniProt Q9H6I2); assay: co-IP; HEC-1B cells (transfected with SOX17 cDNA by the legend; called endogenous in the text); whole cell extract; Co-IP and western blot
# [1] = target: SOX17 (SRY-box containing gene 17) (UniProt Q9H6I2); assay: co-IP; HEK-293 cells transfected with SOX17 and MAML3 cDNA; whole cell lysate; SOX17 antibody for IP, western blot with MAML3 antibodies; Protein A+G agarose beads
binding (SOX17 in HEC-1B cells),binding [1],Substance
binds,,MAML3 in HEC-1B cells (from UniProt Q96JK9 1-1138)
,binds,MAML3 (from UniProt Q96JK9 1-1138)
